Here are results for 28 compounds from the supplement of paper PMC11348887.

Structures can show the parent of a compound that is named as a salt. The list shows a part of the results. Most values lie at the level of the controls, where differences are scatter.

Holding throughout (conditions): 5 µM; treatment: days 7-14 after plating, readout day 21
The subject of experiment [1] is hPSC-derived cortical neurons (WA09). The experiment in a line: nucleus area z-score vs screen plate; higher = larger nuclei (more mature).
Experiment [2] shares this test system. Put plainly: total neurite length per nucleus (MAP2) z-score; higher = more neurite growth.
For experiment [3] the test system is unchanged. Put plainly: nucleus roundness z-score vs screen plate; higher = rounder nuclei (more mature).
Experiment [4] has the same test system. Put plainly: KCl-induced FOS+/EGR-1+ double-positive nuclei fraction z-score (KCl minus unstimulated); higher = stronger activity-induced IEG response.

As to `Cc1cn([C@@H]2C[C@@H](O)[C@H](CO)O2)c(=O)[nH]c1=O` [Telbivudine], in experiment [1], the nucleus area z-score was 0.801. The “total neurite length per nucleus (z-score)” value in experiment [2] was -0.419. This compound had a nucleus roundness z-score in experiment [3] of -0.161. The “KCl-induced FOS+/EGR-1+ double-positive nuclei fraction z-score” value in experiment [4] is 0.171.
Take `Cc1cccc(-c2[nH]ncc2-c2ccc3ncccc3n2)n1`: the nucleus area z-score in experiment [1] was -0.422. Moreover, the “total neurite length per nucleus (z-score)” value in experiment [2] was -1.36. Besides, in experiment [3], the nucleus roundness z-score is -2.23. Further, the “KCl-induced FOS+/EGR-1+ double-positive nuclei fraction z-score” value in experiment [4] is -0.603.
Consider `Cc1c(F)cc(C(=O)NC2CC2)cc1-c1ccc(C(=O)NCC(C)(C)C)cn1`, for which the nucleus area z-score in experiment [1] came to 2.56. In addition, in experiment [2], the “total neurite length per nucleus (z-score)” value stood at 0.614. This compound also yielded a nucleus roundness z-score in experiment [3] of -0.15. Further, the “KCl-induced FOS+/EGR-1+ double-positive nuclei fraction z-score” value in experiment [4] is 0.318.
Take `CC(C)NCC(O)c1cc(O)cc(O)c1` (configuration not stated) [Metaproterenol Sulfate]: the nucleus area z-score in experiment [1] came out at 0.705. Besides, the “total neurite length per nucleus (z-score)” value in experiment [2] stood at 0.528. The compound also returned a nucleus roundness z-score in experiment [3] of 0.52. In experiment [4], the “KCl-induced FOS+/EGR-1+ double-positive nuclei fraction z-score” value came to 2.12.
In turn, `Cc1cccn2c(=O)c(-c3nnn[nH]3)cnc12` [Pemirolast potassium] yielded a nucleus area z-score in experiment [1] of -0.43. Moreover, in experiment [2], the “total neurite length per nucleus (z-score)” value came out at 0.604. Further, the nucleus roundness z-score in experiment [3] stood at 0.755. Besides, in experiment [4], the “KCl-induced FOS+/EGR-1+ double-positive nuclei fraction z-score” value was -0.779.
Compound `Fc1ccc(C(c2ccc(F)cc2)N2CCN(C/C=C/c3ccccc3)CC2)cc1` [Flunarizine 2HCl] gave a nucleus area z-score in experiment [1] of -2.03. In experiment [2], the “total neurite length per nucleus (z-score)” value is -1.89. This compound returned a nucleus roundness z-score in experiment [3] of -3.97. The “KCl-induced FOS+/EGR-1+ double-positive nuclei fraction z-score” value in experiment [4] is -0.139.
The compound `CCCCC(=O)N(Cc1ccc(-c2ccccc2-c2nnn[nH]2)cc1)[C@H](C(=O)O)C(C)C` [Valsartan] had a nucleus area z-score in experiment [1] of 0.0831. The “total neurite length per nucleus (z-score)” value in experiment [2] was 0.349. The compound further showed a nucleus roundness z-score in experiment [3] of 0.629. In experiment [4], the “KCl-induced FOS+/EGR-1+ double-positive nuclei fraction z-score” value stood at 1.55.
With `COc1ccccc1Oc1c(NS(=O)(=O)c2ccc(C(C)(C)C)cc2)nc(-c2ncccn2)nc1OCCO` [Bosentan Hydrate], the nucleus area z-score in experiment [1] turned out to be 1.39. The “total neurite length per nucleus (z-score)” value in experiment [2] came out at 0.733. Moreover, in experiment [3], the nucleus roundness z-score came out at 1.8. Further, the “KCl-induced FOS+/EGR-1+ double-positive nuclei fraction z-score” value in experiment [4] worked out at 2.49.
For the compound `Cc1cnc(NC(=O)C2=C(O)c3ccccc3S(=O)(=O)N2C)s1` [Meloxicam], the nucleus area z-score in experiment [1] is 0.424. Also, the “total neurite length per nucleus (z-score)” value in experiment [2] is -0.204. For the same compound, the nucleus roundness z-score in experiment [3] was 0.426. Further, the “KCl-induced FOS+/EGR-1+ double-positive nuclei fraction z-score” value in experiment [4] was found to be 0.189.
Compound `Nc1nc2c(ncn2COC(CO)CO)c(=O)[nH]1` [Ganciclovir] gave a nucleus area z-score in experiment [1] of 0.286. Moreover, the “total neurite length per nucleus (z-score)” value in experiment [2] was -0.651. In experiment [3], the nucleus roundness z-score is -1.12. Further, the “KCl-induced FOS+/EGR-1+ double-positive nuclei fraction z-score” value in experiment [4] was -1.12.
`Cc1ccc(-n2sc(=O)n(Cc3ccc(F)cc3)c2=O)cc1` displayed a nucleus area z-score in experiment [1] of 0.821. The “total neurite length per nucleus (z-score)” value in experiment [2] was -0.361. The nucleus roundness z-score in experiment [3] was -0.531. Besides, in experiment [4], the “KCl-induced FOS+/EGR-1+ double-positive nuclei fraction z-score” value is -1.13.
In experiment [1], `CC(C)(C)NCC(O)c1ccc(O)c(CO)c1` (configuration not stated) [Salbutamol Sulfate] yielded a nucleus area z-score of -0.199. For the same compound, in experiment [2], the “total neurite length per nucleus (z-score)” value turned out to be 0.6. Also, the nucleus roundness z-score in experiment [3] was determined as 0.327. Further, in experiment [4], the “KCl-induced FOS+/EGR-1+ double-positive nuclei fraction z-score” value came to 0.731.
Taken in the same sequence, the figures for `Oc1cccc(O)c1` [Resorcinol] were -0.125, 1.18, 0.527 and 0.631.
`CCOc1cc(CC(=O)N[C@@H](CC(C)C)c2ccccc2N2CCCCC2)ccc1C(=O)O` [Repaglinide] returned a nucleus area z-score in experiment [1] of -0.173. The “total neurite length per nucleus (z-score)” value in experiment [2] amounted to 0.0498. The same compound yielded a nucleus roundness z-score in experiment [3] of 0.288. Also, the “KCl-induced FOS+/EGR-1+ double-positive nuclei fraction z-score” value in experiment [4] came out at 1.72.
For the compound `CCOC(=O)N1CCC(=C2c3ccc(Cl)cc3CCc3cccnc32)CC1` [Loratadine], the nucleus area z-score in experiment [1] was -0.56. Also, in experiment [2], the “total neurite length per nucleus (z-score)” value is -0.2. The nucleus roundness z-score in experiment [3] is -0.396. For the same compound, in experiment [4], the “KCl-induced FOS+/EGR-1+ double-positive nuclei fraction z-score” value is -0.571.
In turn, `C=CC[C@@H]1/C=C(\C)C[C@H](C)C[C@H](OC)[C@H]2O[C@@](O)(C(=O)C(=O)N3CCCC[C@H]3C(=O)O[C@H](/C(C)=C/[C@@H]3CC[C@@H](O)[C@H](OC)C3)[C@H](C)[C@@H](O)CC1=O)[C@H](C)C[C@@H]2OC` [Tacrolimus (FK506)] registered a nucleus area z-score in experiment [1] of -0.583. Besides, the “total neurite length per nucleus (z-score)” value in experiment [2] was 0.066. This compound also had a nucleus roundness z-score in experiment [3] of -0.318. The “KCl-induced FOS+/EGR-1+ double-positive nuclei fraction z-score” value in experiment [4] stood at 0.295.
The compound `O=C(NC1CCN(CCCCC2(C(=O)NCC(F)(F)F)c3ccccc3-c3ccccc32)CC1)c1ccccc1-c1ccc(C(F)(F)F)cc1` [Lomitapide] displayed a nucleus area z-score in experiment [1] of -16.3. The “total neurite length per nucleus (z-score)” value in experiment [2] is -6.28. The compound further returned a nucleus roundness z-score in experiment [3] of 0.802. Further, in experiment [4], the “KCl-induced FOS+/EGR-1+ double-positive nuclei fraction z-score” value is -0.983.
Compound `O=C(Nc1ccccc1)c1cc([N+](=O)[O-])ccc1Cl` displayed a nucleus area z-score in experiment [1] of 0.59. The “total neurite length per nucleus (z-score)” value in experiment [2] is -1.02. In addition, the nucleus roundness z-score in experiment [3] was -1.68. Further, the “KCl-induced FOS+/EGR-1+ double-positive nuclei fraction z-score” value in experiment [4] was -0.767.
Turning to `NS(=O)(=O)c1cc2c(cc1Cl)N=C(CSCc1ccccc1)NS2(=O)=O` [Benzthiazide], the nucleus area z-score in experiment [1] was -0.086. In addition, in experiment [2], the “total neurite length per nucleus (z-score)” value turned out to be 0.534. This compound also yielded a nucleus roundness z-score in experiment [3] of -0.275. Moreover, the “KCl-induced FOS+/EGR-1+ double-positive nuclei fraction z-score” value in experiment [4] was 0.0898.
Consider `Cc1nc(C)c(Cl)c(O)c1Cl` [Clopidol], for which the nucleus area z-score in experiment [1] was determined as 0.476. For the same compound, the “total neurite length per nucleus (z-score)” value in experiment [2] came to 0.897. Besides, the nucleus roundness z-score in experiment [3] turned out to be 0.8. Besides, the “KCl-induced FOS+/EGR-1+ double-positive nuclei fraction z-score” value in experiment [4] stood at 2.67.
With `CN(C)Cc1c(C(=O)NCCOc2ccc(C(=O)NO)cc2)oc2ccccc12`, the nucleus area z-score in experiment [1] was -7.26. For the same compound, in experiment [2], the “total neurite length per nucleus (z-score)” value is -2.43. In experiment [3], the nucleus roundness z-score was -3.1. Also, in experiment [4], the “KCl-induced FOS+/EGR-1+ double-positive nuclei fraction z-score” value was -0.507.
Taken in the same sequence, the figures for `O=c1cc(CN2CCOCC2)occ1OCCCCCSc1ccnc2cc(C(F)(F)F)ccc12` were 0.0598, -0.984, -0.28 and -0.197.
Taken in the same sequence, the figures for `N=C(N)NC(=O)Cc1c(Cl)cccc1Cl` [Guanfacine Hydrochloride] were -0.0353, -0.251, 0.282 and -0.206.
For `Cc1cc([N+](=O)[O-])ccc1NS(=O)(=O)c1cc(Cl)ccc1Cl`, in experiment [1], the nucleus area z-score was 0.697. For the same compound, the “total neurite length per nucleus (z-score)” value in experiment [2] worked out at 0.298. Moreover, the nucleus roundness z-score in experiment [3] was 0.681. Moreover, the “KCl-induced FOS+/EGR-1+ double-positive nuclei fraction z-score” value in experiment [4] came out at 1.15.
For `CC(C)n1cnc2c(NCCc3ccc(O)cc3)nc(-c3csc4ccccc34)nc21` [StemRegenin 1 (SR1)] the same measures were -1.99, -0.0252, 0.315 and 0.175.
For `CC(O)(P(=O)(O)O)P(=O)(O)O` [Etidronate] the same measures were -2.48, -0.287, 0.0244 and -0.943.
With `O=C(CCCCCN1C(=O)c2cccc3cccc(c23)C1=O)NO` [Scriptaid], the nucleus area z-score in experiment [1] was -5.18. In addition, in experiment [2], the “total neurite length per nucleus (z-score)” value is -1.32. In addition, the nucleus roundness z-score in experiment [3] is -3.88. Further, the “KCl-induced FOS+/EGR-1+ double-positive nuclei fraction z-score” value in experiment [4] stood at 0.312.
`O=C(O)CCNc1cc(N2CCc3ccccc3CC2)nc(-c2ccccn2)n1` showed a nucleus area z-score in experiment [1] of -0.235. For the same compound, in experiment [2], the “total neurite length per nucleus (z-score)” value stood at 1.19. Also, the nucleus roundness z-score in experiment [3] was found to be 0.172. The “KCl-induced FOS+/EGR-1+ double-positive nuclei fraction z-score” value in experiment [4] is -0.334.
